These are yes or no findings as the source states them, for the method shown. Binding seen in cells or lysates may run through a third protein. Some binding calls cover weakened binding; strength is not graded here.
Legend:
myc-EXOSC3 = myc-EXOSC3 (UniProt Q7TQK4); assay: co-IP; myc-EXOSC3 precipitated with anti-myc magnetic beads from lysate of transfected N2A cells (20 mM Hepes pH 7.2, 100 mM NaCl, 0.2% Triton X-100; 1 h, room temperature); immunoblot
[1] = molecular target: EXOSC3 (endogenous) (mouse (endogenous in N2A)) (UniProt Q7TQK4); assay: co-IP; endogenous EXOSC3 precipitated with rabbit polyclonal EXOSC3 antibody on Protein G beads from the cytoplasmic fraction of N2A cells (50 mM Tris-HCl pH 7.4, 100 mM NaCl, 0.5% IGEPAL CA-630; 4 °C overnight); immunoblot
[2] = molecular target: EXOSC3 (endogenous) (mouse (endogenous in N2A)) (UniProt Q7TQK4); assay: co-IP; endogenous EXOSC3 precipitated with rabbit polyclonal EXOSC3 antibody on Protein G beads from the nuclear fraction of N2A cells (50 mM Tris-HCl pH 7.4, 100 mM NaCl, 0.5% IGEPAL CA-630; 4 °C overnight); immunoblot; also with RNase A, other RNases or DNase I added to the lysate, and after treatment of the cells with camptothecin or bleomycin

Sequences of proteins named here, by UniProt entry; tags and fusion partners are left off. A change or cut given only in a name is not applied to a line headed by its entry.
UniProt Q7TQK4: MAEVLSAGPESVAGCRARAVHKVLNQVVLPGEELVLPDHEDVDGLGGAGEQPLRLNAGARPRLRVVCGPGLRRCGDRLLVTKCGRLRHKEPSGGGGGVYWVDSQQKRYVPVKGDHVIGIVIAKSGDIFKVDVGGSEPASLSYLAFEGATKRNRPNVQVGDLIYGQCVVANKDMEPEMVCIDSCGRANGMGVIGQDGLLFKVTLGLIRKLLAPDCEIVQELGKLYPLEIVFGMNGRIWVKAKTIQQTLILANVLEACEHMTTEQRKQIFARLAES
UniProt Q9JHI7: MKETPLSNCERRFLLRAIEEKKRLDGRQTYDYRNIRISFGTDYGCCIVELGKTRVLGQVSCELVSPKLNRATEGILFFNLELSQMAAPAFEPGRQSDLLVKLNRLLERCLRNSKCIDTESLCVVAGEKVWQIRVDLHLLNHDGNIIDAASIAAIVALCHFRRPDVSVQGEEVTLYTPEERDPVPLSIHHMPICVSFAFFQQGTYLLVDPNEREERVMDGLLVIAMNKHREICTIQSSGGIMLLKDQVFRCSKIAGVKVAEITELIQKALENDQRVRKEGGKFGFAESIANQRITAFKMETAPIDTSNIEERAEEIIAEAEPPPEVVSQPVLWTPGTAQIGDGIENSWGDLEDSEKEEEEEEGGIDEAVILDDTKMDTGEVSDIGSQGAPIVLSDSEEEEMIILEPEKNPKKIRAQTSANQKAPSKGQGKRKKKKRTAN

Measured: binding

EXOSC9 (from UniProt Q9JHI7 1-438)
binds: all assays above

— article PMC10875230
